Values quoted from earlier work, collected in patent US20090311349A1, “METHOD OF QUANTIFICATION OF MULTIPLE BIOACTIVES FROM BOTANICAL COMPOSITIONS” (priority 2008, published 2009).
At least one compound was matched to its structure with a doubt left.

Legend:
[1] = test system: keratin 19 ERE in U2OS-ERβ cells; conditions: ChIP, Kian Tee 2004; cited from earlier work
[2] = test system: keratin 19 ERE in U2OS-ERα cells; conditions: ChIP, Kian Tee 2004; cited from earlier work
[3] = test system: MCF-7 breast cancer cells; conditions: An 2001; cited from earlier work
[4] = test system: keratin 19 gene in U2OS-ERβ cells; conditions: Kian Tee 2004; cited from earlier work
[5] = test system: keratin 19 gene in U2OS-ERα cells; conditions: Kian Tee 2004; cited from earlier work

## C[C@]12CC[C@@H]3c4ccc(O)cc4CC[C@H]3[C@@H]1CC[C@@H]2O [estradiol]
[1]
  recruitment of ERβ in U2OS-ERβ cells: recruitment
[2]
  recruitment of ERα in U2OS-ERα cells: recruitment
[3]
  cell number in ERα-MCF-7 cells: dose-dependent increase
[4]
  keratin 19 mRNA in U2OS cells with tetracycline-inducible ERβ: dose-dependent stimulation
[5]
  keratin 19 mRNA in U2OS cells with tetracycline-inducible ERα: dose-dependent stimulation
